# Data from article PMC5399192.
# Protein sequences, listed by entry. Tags and fused reporters are not part of them.
# UniProt P38532: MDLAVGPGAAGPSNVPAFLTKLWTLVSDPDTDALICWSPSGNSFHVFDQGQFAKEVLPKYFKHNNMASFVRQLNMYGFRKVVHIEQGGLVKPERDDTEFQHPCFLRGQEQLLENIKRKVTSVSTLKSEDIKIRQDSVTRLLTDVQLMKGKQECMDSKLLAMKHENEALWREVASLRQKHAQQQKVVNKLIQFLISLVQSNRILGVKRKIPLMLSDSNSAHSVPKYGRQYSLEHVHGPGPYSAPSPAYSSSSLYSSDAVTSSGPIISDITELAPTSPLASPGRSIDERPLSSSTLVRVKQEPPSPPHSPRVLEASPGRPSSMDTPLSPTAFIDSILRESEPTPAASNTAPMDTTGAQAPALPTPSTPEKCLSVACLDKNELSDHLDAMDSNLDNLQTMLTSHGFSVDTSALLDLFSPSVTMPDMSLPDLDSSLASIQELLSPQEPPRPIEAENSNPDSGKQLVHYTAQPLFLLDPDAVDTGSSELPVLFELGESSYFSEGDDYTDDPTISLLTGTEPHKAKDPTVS
# No constants are given. Whether binding was seen depends on the method and setting. Binding seen in cells or lysates may run through a third protein. Some entries that bind do so weakly or less than the wild type.
# B1: Peroxisome proliferator-activated receptor γ coactivator 1α (protein, UniProt O70343 1-797)
# chain: MAWDMCSQDSVWSDIECAALVGEDQPLCPDLPELDLSELDVNDLDTDSFLGGLKWCSDQSEIISNQYNNEPANIFEKIDEENEANLLAVLTETLDSLPVDEDGLPSFDALTDGAVTTDNEASPSSMPDGTPPPQEAEEPSLLKKLLLAPANTQLSYNECSGLSTQNHAANHTHRIRTNPAIVKTENSWSNKAKSICQQQKPQRRPCSELLKYLTTNDDPPHTKPTENRNSSRDKCASKKKSHTQPQSQHAQAKPTTLSLPLTPESPNDPKGSPFENKTIERTLSVELSGTAGLTPPTTPPHKANQDNPFKASPKLKPSCKTVVPPPTKRARYSECSGTQGSHSTKKGPEQSELYAQLSKSSGLSRGHEERKTKRPSLRLFGDHDYCQSLNSKTDILINISQELQDSRQLDFKDASCDWQGHICSSTDSGQCYLRETLEASKQVSPCSTRKQLQDQEIRAELNKHFGHPCQAVFDDKSDKTSELRDGDFSNEQFSKLPVFINSGLAMDGLFDDSEDESDKLSYPWDGTQPYSLFDVSPSCSSFNSPCRDSVSPPKSLFSQRPQRMRSRSRSFSRHRSCSRSPYSRSRSRSPGSRSSSRSCYYYESSHYRHRTHRNSPLYVRSRSRSPYSRRPRYDSYEAYEHERLKRDEYRKEHEKRESERAKQRERQKQKAIEERRVIYVGKIRPDTTRTELRDRFEVFGEIEECTVNLRDDGDSYGFITYRYTCDAFAALENGYTLRRSNETDFELYFCGRKQFFKSNYADLDTNSDDFDPASTKSKYDSLDFDSLLKEAQRSLRR
# Molecular target: heat shock factor 1 (mouse (endogenous in immortalized mouse fibroblasts differentiated to brown adipocytes)) (UniProt P38532)
# Assay: co-IP; lysates from differentiated WT and PGC1α-null brown adipocytes; immunoprecipitated with anti-HSF1 antibody (rabbit IgG as control), Catch and Release v2.0 system; blotted with anti-PGC1α and anti-HSF1; cells with or without heat shock at 42 °C for 1 h and 1 h recovery
binder,measurement,value
B1,binding,binds
